This note sets out measurements from patent US20050244864A1, “Development and use of fluorescent probes of unbound analytes” (priority 2004, published 2005).

The chains behind the UniProt entries cited, without tags or fusion partners. Where a name states a change or a piece, a line headed by the entry shows the natural chain unless it says otherwise.
UniProt P02693: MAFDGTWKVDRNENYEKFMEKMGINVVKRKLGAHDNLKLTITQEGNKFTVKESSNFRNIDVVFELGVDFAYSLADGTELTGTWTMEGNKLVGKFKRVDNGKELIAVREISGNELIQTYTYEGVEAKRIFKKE

The nature of the data set: Mutant probe screening: baseline fluorescence ratio Ro and fatty acid response phenotype. Type of data set: binding. To be noted: fluorescence ratio for zero FFAu concentration. The protocol: The intensity ratio (“R” value) for a given probe is determined. The ratio is calculated using the following formula: R=Fλ1/Fλ2 wherein, Fλ1, is the measured fluorescence intensities (intensity of sample with probe present minus intensity of sample without probe present) at wavelength 1 and Fλ2 is the measured fluorescence intensities (intensity of sample with probe present minus intensity of sample without probe present) at wavelength 2. Then, for a given probe, ΔR, the difference in R value between the measurement in the presence of the analyte and in the absence of the analyte, is calculated as follows: ΔR=R+analyte−R0 The ΔR value for a given probe is then compared to a reference probe, for example, ADIFAB or ADIFAB2, by ΔR/ΔRreference. This value is an indication of how dissimilar the new probe (derived by mutation of the template) is to the reference. By this method, probes with new and useful characteristics may be identified. Measurements of fluorescence intensities are obtained using standard techniques.
Plates were prepared and read in two stages. First, complexes and fatty acid free BSA were diluted to 6 μM BSA in HEPES and added to the 96-well plate at 300 μL per well. A MultiProbe II HT (Perkin Elmer) (an automated liquid handling system) was used to facilitate plate preparation for high throughput screening, but any automated or manual pipetting system will suffice. The background fluorescence was then measured at the same wavelengths as used for ADIFAB2 using a Fluorolog-3 spectrofluorometer with an external Micromax 384 fluorescence plate reader (Jobin Yvon). In the second stage, 30 μL aliquots of the mutant probes were added to multiple wells of the plate, one for each fatty acid and one with fatty acid free BSA only, and the fluorescence intensity at each wavelength was again measured on the plate reader. After subtraction of the background fluorescence, the fluorescence ratio of each well was calculated.
The fluorescence response was quantitatively compared to ADIFAB2 to search for changes in magnitude and fatty acid profile; for example the response to one fatty acid relative to another. For each probe the ratio differences (AR) between wells with each fatty acid compared to a corresponding well with fatty acid free BSA were recorded. The relative response compared to ADIFAB2 was calculated by dividing AR for each fatty acid by that for ADIFAB2 (ΔR/ΔRAD2). Probes that show large (ΔR/ΔRAD2) and different (ΔR/ΔRAD2) for different fatty acids were chosen for larger scale production and calibration. The methods described above can be used to screen other fatty acids and/or other unbound metabolites using other plate readers. We have attained equivalent results, for example, using the Gemini EM dedicated fluorescence plate reader (Molecular Devices).
Screening was conducted by evaluating ΔR/ΔRreference as described in paragraphs 0053-0055 and Example 1 for the following fatty acids: palmitate, palmitoleate, stearate, oleate, linoleate, linolenate and arachidonate, where the reference was to ADIFAB2. The screening rate was increased by use of 384 well plates. In this case the total well volume was reduced to 100 μL and the volume of probe used per well was 10 μL. Because the identity of each mutant probe was unknown in this example, the probes of interest were organized according to phenotype. Typically, phenotypic clusters could be generated by grouping unknown probes that gave Ro and ΔR/ΔRAD2 values within 10 to 20% of each other. The clone ID specifies the second library and well position of each clone. The fluorescence ratio for zero FFAu concentration (Ro) is shown in the second column. The remaining 7 columns are the ratios of the fluorescence response (R-Ro) for each probe relative to ADIFAB2 for arachidonate, linolenate, linoleate, oleate, palmitate, palmitoleate and stearate. […]

Substitutions are numbered along the chain they refer to. Names and notes keep the numbering of the source.

B1: L2P22E6: acrylodan-labeled rI-FABP-L72A mutein: M18 V, G31 A, F55 I, A73 W (protein, UniProt P02693 2-132, looked up, variant M18V G31A F55I L72A A73W)
Fatty acid-binding protein, …: AFDGTWKVDRNENYEKFVEKMGINVVKRKLAAHDNLKLTITQEGNKFTVKESSNIRNIDVVFELGVDFAYSAWDGTELTGTWTMEGNKLVGKFKRVDNGKELIAVREISGNELIQTYTYEGVEAKRIFKKE
modifications: acrylodan label
notes: acrylodan-labeled rI-FABP-L72A mutein: M18 V, G31 A, F55 I, A73 W
With B1, the Ro was 0.35.

B2: L2P22G6: acrylodan-labeled rI-FABP-L72A mutein: M18 I, G31 Y, F55 WT, A73 G (protein, UniProt P02693 2-132, looked up, variant M18I G31Y L72A A73G)
Fatty acid-binding protein, …: B1 Fatty acid-binding protein, … with V18I, A31Y, I55F, W73G
modifications: acrylodan label
notes: acrylodan-labeled rI-FABP-L72A mutein: M18 I, G31 Y, F55 WT, A73 G
B2: the Ro was found to be 0.30.

B3: L2P17H10: acrylodan-labeled rI-FABP-L72A mutein: M18 G, G31 F, F55 WT, A73 L (protein, UniProt P02693 2-132, looked up, variant M18G G31F L72A A73L)
Fatty acid-binding protein, …: B1 Fatty acid-binding protein, … with V18G, A31F, I55F, W73L
modifications: acrylodan label
notes: acrylodan-labeled rI-FABP-L72A mutein: M18 G, G31 F, F55 WT, A73 L
Consider B3, for which the Ro was 0.23.

B4: L2P18H12: acrylodan-labeled rI-FABP-L72A mutein: M18 I, G31 V, F55 WT, A73 G (protein, UniProt P02693 2-132, looked up, variant M18I G31V L72A A73G)
Fatty acid-binding protein, …: B1 Fatty acid-binding protein, … with V18I, A31V, I55F, W73G
modifications: acrylodan label
notes: acrylodan-labeled rI-FABP-L72A mutein: M18 I, G31 V, F55 WT, A73 G
As to B4, the Ro stood at 0.36.

B5: L2P12C5: acrylodan-labeled rI-FABP-L72A mutein: M18 I, G31 I, F55 M, A73 I (protein, UniProt P02693 2-132, looked up, variant M18I G31I F55M L72A A73I)
Fatty acid-binding protein, …: B1 Fatty acid-binding protein, … with V18I, A31I, I55M, W73I
modifications: acrylodan label
As to B5, the Ro amounted to 0.39.

B6: L2P4C5: acrylodan-labeled rI-FABP-L72A mutein: M18 I, G31 Y, F55 WT, A73 WT (protein, UniProt P02693 2-132, looked up, variant M18I G31Y L72A)
Fatty acid-binding protein, …: B1 Fatty acid-binding protein, … with V18I, A31Y, I55F, W73A
modifications: acrylodan label
For the molecule B6, the Ro came to 0.35.

B7: L2P8A5: acrylodan-labeled rI-FABP-L72A mutein: M18 V, G31 A, F55 W, A73 W (protein, UniProt P02693 2-132, looked up, variant M18V G31A F55W L72A A73W)
Fatty acid-binding protein, …: B1 Fatty acid-binding protein, … with I55W
modifications: acrylodan label
For B7, the Ro amounted to 0.35.

B8: L2P2E11: acrylodan-labeled rI-FABP-L72A mutein: M18 I, G31 F, F55 WT, A73 WT (protein, UniProt P02693 2-132, looked up, variant M18I G31F L72A)
Fatty acid-binding protein, …: B1 Fatty acid-binding protein, … with V18I, A31F, I55F, W73A
modifications: acrylodan label
As to B8, the Ro is given as 0.31.

B9: L2P23A4: acrylodan-labeled rI-FABP-L72A mutein: M18 V, G31 I, F55 L, A73 V (protein, UniProt P02693 2-132, looked up, variant M18V G31I F55L L72A A73V)
Fatty acid-binding protein, …: B1 Fatty acid-binding protein, … with A31I, I55L, W73V
modifications: acrylodan label
B9: the Ro is reported as 0.40.

B10: L2P11B4: acrylodan-labeled rI-FABP-L72A mutein: M18 V, G31 A, F55 WT, A73 W (protein, UniProt P02693 2-132, looked up, variant M18V G31A L72A A73W)
Fatty acid-binding protein, …: B1 Fatty acid-binding protein, … with I55F
modifications: acrylodan label
notes: acrylodan-labeled rI-FABP-L72A mutein: M18 V, G31 A, F55 WT, A73 W
Regarding B10, the Ro was 0.35.

B11: L2P8A6: acrylodan-labeled rI-FABP-L72A mutein: M18 I, G31 V, F55 V, A73 V (protein, UniProt P02693 2-132, looked up, variant M18I G31V F55V L72A A73V)
Fatty acid-binding protein, …: B1 Fatty acid-binding protein, … with V18I, A31V, I55V, W73V
modifications: acrylodan label
For the molecule B11, the Ro was 0.36.
